# Percent effect of library compounds

Mtb glucose medium: 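Phenotypic screen: M. tuberculosis growth, glucose 7H9 medium, 3 days; the read-out is not stated. Tested at 50 µM. Higher reads as more growth inhibition (inferred: compounds with an IC50 in retests scored well above the rest). About 69,000 compounds were tested under these conditions; 1.1% (about 760) showed 50% or more at least once.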
Mtb cholesterol medium: 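Whole-cell growth test on Mycobacterium tuberculosis, read after 4 days in a medium based on cholesterol and the lipid DPPC; the read-out is not stated. Tested at 50 µM. Higher reads as more growth inhibition (inferred: compounds with an IC50 in retests scored well above the rest). Size under these conditions: about 69,000 compounds, about 370 of them at 50% or above in at least one test.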

Results are given as percent effect.
How 0% and 100% were set is not recorded. Most values in the screen are low, and negative values occur.
This is an unselected part of the compounds tested.
Two or more numbers in one place are separate tests of the same structure; such repeats can differ widely.

{"smiles": "CCc1nc2c(N3CCC4(CC3)CC(=O)N(CC(C)C)C4)ncnc2o1", "Mtb glucose medium": -0.8048, "Mtb cholesterol medium": -14.61}
{"smiles": "CCC(=O)N1CCCCC1c1nc(O)c2c(n1)CN(C(C)=O)CC2", "stereo": "stereo not drawn", "Mtb glucose medium": -30.89, "Mtb cholesterol medium": "1.549 & -1.417"}
{"smiles": "CCc1noc(C)c1C(=O)N1CCCC1Cn1nc(C)cc1C", "stereo": "stereo not drawn", "Mtb glucose medium": -5.549, "Mtb cholesterol medium": 4.593}
{"smiles": "COCc1nccc(C2CCCN(Cc3ccccc3C#N)C2)n1", "stereo": "stereo not drawn", "Mtb glucose medium": 25.3, "Mtb cholesterol medium": 15.41}
{"smiles": "CC(C)N1CCC(NCc2cccnc2N(C)C)CC1", "Mtb glucose medium": 20.26, "Mtb cholesterol medium": 3.874}
{"smiles": "O=C(O)[C@@H]1CN(CCOCCO)C[C@H]1c1ccccc1", "Mtb glucose medium": "4.737 & -23.59", "Mtb cholesterol medium": -14}
{"smiles": "CC(C)(C)C(=O)N1C[C@@H](F)[C@@H](OCc2nc3ccccc3o2)C1", "Mtb glucose medium": "-4.938 & 10.82", "Mtb cholesterol medium": 0.8566}
{"smiles": "CCN(CC)S(=O)(=O)c1ccc(C(F)(F)F)cc1C#N", "Mtb glucose medium": 16.34, "Mtb cholesterol medium": 13.54}
{"smiles": "COc1ccc(OC2CCN(C(=O)c3ccc(C)[nH]c3=O)CC2)cc1", "Mtb glucose medium": 18.82, "Mtb cholesterol medium": 7.009}
{"smiles": "CC(C)(C)c1cc(=O)[nH]c(-c2ccccc2CN2CCCCCC2)n1", "Mtb glucose medium": -35.01, "Mtb cholesterol medium": -22.49}
{"smiles": "O=C(CN(Cc1cccnc1)CC1CCCO1)Nc1ccc(F)cc1", "stereo": "stereo not drawn", "Mtb glucose medium": "-7.319 & -6.539", "Mtb cholesterol medium": -1.872}
{"smiles": "Cc1nc(C2CCN(S(C)(=O)=O)CC2)nc(N2CCCC2)c1C", "Mtb glucose medium": -23.24, "Mtb cholesterol medium": "6.899 & 5.441"}
{"smiles": "COc1ccc(C(C)NCc2c[nH]nc2C)cc1OC.Cl", "stereo": "stereo not drawn", "Mtb glucose medium": "-30.03 & -2.074", "Mtb cholesterol medium": -18.01}
{"smiles": "Cc1ccccc1C(CC(=O)NCc1nnc(N)s1)c1ccccc1", "stereo": "stereo not drawn", "Mtb glucose medium": 12.24, "Mtb cholesterol medium": 8.961}
{"smiles": "CCOc1ccc(C#N)cc1NCC(=O)NC1(C#N)CCCC1", "Mtb glucose medium": "1.576 & 7.644", "Mtb cholesterol medium": 5.215}
{"smiles": "Cc1cnn(CC2CN(c3cnc4ccccc4n3)CCO2)c1", "stereo": "stereo not drawn", "Mtb glucose medium": 64.96, "Mtb cholesterol medium": 82.16}
{"smiles": "CN(C)S(=O)(=O)N1CC[C@]2(C[C@H](OCc3ccccn3)CO2)C1.O=C(O)C(F)(F)F", "Mtb glucose medium": "1.889 & 12.33", "Mtb cholesterol medium": -0.8721}
{"smiles": "O=C1CCCN1CC1CN(C(=O)C2CCOCC2)Cc2nccn2C1", "stereo": "stereo not drawn", "Mtb glucose medium": "-5.718 & -33.22", "Mtb cholesterol medium": "16 & -15.58"}
{"smiles": "Cc1cccn2cc(CN3CCCC(c4noc(C5CC5)n4)C3)nc12", "stereo": "stereo not drawn", "Mtb glucose medium": 16.41, "Mtb cholesterol medium": -16.84}
{"smiles": "CSc1nnc(C2CCN(C(=O)N3CCCC3)CC2)n1C", "Mtb glucose medium": 11.22, "Mtb cholesterol medium": "2.176 & 1.273"}
{"smiles": "O=C1CC(c2ccccc2)c2snc(C(=O)O)c2N1", "stereo": "stereo not drawn", "Mtb glucose medium": -0.5698, "Mtb cholesterol medium": -11.81}
{"smiles": "CN1CCN(CCn2cnc3c(F)cccc3c2=O)CC1", "Mtb glucose medium": 22.76, "Mtb cholesterol medium": -8.536}
{"smiles": "[H][C@@]12CCN(Cc3ccoc3)C[C@@]1([H])O[C@@H](C(=O)NCCOC)C2", "Mtb glucose medium": -6.613, "Mtb cholesterol medium": -13.03}
{"smiles": "O=C(O)C(F)(F)F.[H][C@@]12CN(C(=O)Cc3cccs3)C[C@]1([H])OCCN2CC1CCCC1", "Mtb glucose medium": 6.048, "Mtb cholesterol medium": -22.09}
{"smiles": "Cc1cn2nc(N3CCCC3Cn3cccn3)sc2n1", "stereo": "stereo not drawn", "Mtb glucose medium": 5.037, "Mtb cholesterol medium": -0.4144}
{"smiles": "CCc1cc(CN2CCC(CCC(=O)Nc3ccccc3Cl)CC2)on1", "Mtb glucose medium": "1.99 & -4.272", "Mtb cholesterol medium": -14.02}
{"smiles": "Cc1cc(C)cc(CN2CCN(Cc3ccc4nonc4c3)CC2=O)c1", "Mtb glucose medium": 10.71, "Mtb cholesterol medium": "-0.5934 & 1.287"}
{"smiles": "[H][C@@]12COC[C@H](c3nc(C)no3)[C@]1([H])CN(C(=O)COCC)C2", "Mtb glucose medium": 2.232, "Mtb cholesterol medium": "-13.91 & -4.875"}
{"smiles": "CC(C)n1nnc(CC(=O)NCC2(c3ccccc3F)CCOCC2)n1", "Mtb glucose medium": -18.12, "Mtb cholesterol medium": "1.847 & -0.1258"}
{"smiles": "O=C(c1cccc(C2CCNC2)c1)N1CCC(c2ncc[nH]2)CC1", "stereo": "stereo not drawn", "Mtb glucose medium": 12.85, "Mtb cholesterol medium": 17.17}
{"smiles": "CCSc1ncc(CN2CCN(c3ncc(C)c(N)n3)CC2)cn1", "Mtb glucose medium": 51.02, "Mtb cholesterol medium": 56.12}

The first 4 entries again:

With CCc1nc2c(N3CCC4(CC3)CC(=O)N(CC(C)C)C4)ncnc2o1 the screen gave Mtb glucose medium: -0.8048%; Mtb cholesterol medium: -14.61%.
With CCC(=O)N1CCCCC1c1nc(O)c2c(n1)CN(C(C)=O)CC2 (stereo not drawn) the screen gave Mtb glucose medium: -30.89%; Mtb cholesterol medium: 1.549% & -1.417%.
With CCc1noc(C)c1C(=O)N1CCCC1Cn1nc(C)cc1C (stereo not drawn) the screen gave Mtb glucose medium: -5.549%; Mtb cholesterol medium: 4.593%.
With COCc1nccc(C2CCCN(Cc3ccccc3C#N)C2)n1 (stereo not drawn) the screen gave Mtb glucose medium: 25.3%; Mtb cholesterol medium: 15.41%.

The values are deposited in ChEMBL (CHEMBL3988442, “University of Dundee, Small-Polar-MMV Screening Library” (2021)).